PMC5421922
No constants are given. Whether binding was seen depends on the method and setting. In cells and extracts the contact can be indirect. Some binding calls cover weakened binding; strength is not graded here.

Protein sequences, listed by entry. Tags and fused reporters are not part of them.
UniProt P35222: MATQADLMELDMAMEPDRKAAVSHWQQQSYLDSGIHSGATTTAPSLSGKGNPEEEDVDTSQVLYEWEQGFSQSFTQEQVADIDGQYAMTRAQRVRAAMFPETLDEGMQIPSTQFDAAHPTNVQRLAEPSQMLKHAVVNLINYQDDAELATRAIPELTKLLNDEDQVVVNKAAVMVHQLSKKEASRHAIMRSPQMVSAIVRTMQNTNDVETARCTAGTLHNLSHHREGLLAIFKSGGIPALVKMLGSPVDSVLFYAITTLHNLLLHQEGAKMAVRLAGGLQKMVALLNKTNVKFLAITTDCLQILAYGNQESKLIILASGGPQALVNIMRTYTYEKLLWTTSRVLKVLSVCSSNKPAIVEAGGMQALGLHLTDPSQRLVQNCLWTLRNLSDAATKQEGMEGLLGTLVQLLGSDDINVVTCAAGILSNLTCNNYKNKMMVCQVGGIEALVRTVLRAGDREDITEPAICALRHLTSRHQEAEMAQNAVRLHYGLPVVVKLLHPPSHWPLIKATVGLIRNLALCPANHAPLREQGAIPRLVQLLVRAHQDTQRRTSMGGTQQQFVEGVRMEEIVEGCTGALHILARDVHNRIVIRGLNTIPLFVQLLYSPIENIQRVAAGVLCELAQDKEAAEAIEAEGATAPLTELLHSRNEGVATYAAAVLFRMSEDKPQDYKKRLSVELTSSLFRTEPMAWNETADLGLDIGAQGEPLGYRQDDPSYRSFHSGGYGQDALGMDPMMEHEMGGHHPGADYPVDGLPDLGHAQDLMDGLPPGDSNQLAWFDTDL
UniProt O95619: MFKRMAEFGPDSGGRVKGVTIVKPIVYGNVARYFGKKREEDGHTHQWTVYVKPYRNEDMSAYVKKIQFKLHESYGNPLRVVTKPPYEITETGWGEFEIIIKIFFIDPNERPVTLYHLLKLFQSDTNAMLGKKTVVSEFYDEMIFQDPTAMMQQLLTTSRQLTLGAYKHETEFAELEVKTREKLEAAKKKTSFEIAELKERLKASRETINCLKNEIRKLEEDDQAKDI

Assays:
Flag tagged beta-catenin = Flag tagged beta-catenin (UniProt P35222); test: co-IP; exogenously expressed Flag-beta-catenin and myc-YEATS4 in HPAC cells, immunoprecipitation assay
[1] = target: beta-catenin, endogenously expressed (human (endogenous in HPAC and Capan-1)) (UniProt P35222); test: co-IP; endogenously expressed beta-catenin and YEATS4 in HPAC cells and Capan-1 cells
[2] = target: GST-beta-catenin fusion protein (UniProt P35222); test: pull-down; 5 ug purified GST-beta-catenin incubated with 500 ug HPAC whole cell lysate (50 mM Tris-Cl pH 7.5, 150 mM NaCl, 0.1% NP40) at 4 C over night; captured on glutathione-Sepharose-4B beads; washed three times with lysis buffer; only the target purified

Row | Substance | binding (Flag tagged beta-catenin) | binding [1] | binding [2]
1 | myc tagged YEATS4 (from UniProt O95619 1-227) | binds | – | –
2 | YEATS4, endogenously expressed (from UniProt O95619 1-227) | – | binds | binds
